{"source": "patent US8476455B2", "about": "“1-N-phenyl-amino-1h-imidazole derivatives and pharmaceutical compositions containing them” (Laboratoire Theramex, priority 2003, dated 2013)", "key": {"[1]": {"target": "T1, human aromatase (Homo sapiens, UniProt P11511)", "T1 construct": "The JEG-3 cell line, derived from a human placental choriocarcinoma, constitutively overexpresses human aromatase; endogenous in cells; host or cells: JEG-3 (human placental choriocarcinoma)", "T1 sequence (P11511 1-503)": "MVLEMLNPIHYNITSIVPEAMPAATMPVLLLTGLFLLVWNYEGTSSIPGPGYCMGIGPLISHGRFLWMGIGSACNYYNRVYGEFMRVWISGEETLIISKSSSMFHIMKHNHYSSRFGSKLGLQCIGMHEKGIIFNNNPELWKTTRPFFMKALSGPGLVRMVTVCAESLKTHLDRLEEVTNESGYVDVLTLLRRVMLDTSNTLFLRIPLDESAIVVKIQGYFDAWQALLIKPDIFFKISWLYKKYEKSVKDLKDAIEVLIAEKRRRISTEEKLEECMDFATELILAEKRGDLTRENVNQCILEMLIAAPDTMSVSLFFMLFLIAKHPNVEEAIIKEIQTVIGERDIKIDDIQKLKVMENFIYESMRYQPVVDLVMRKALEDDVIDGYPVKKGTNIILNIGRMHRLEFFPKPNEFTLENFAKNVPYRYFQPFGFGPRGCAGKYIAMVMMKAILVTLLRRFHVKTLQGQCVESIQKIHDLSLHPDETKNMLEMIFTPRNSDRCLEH", "experiment": "Dual aromatase and steroid sulfatase activities in JEG-3 cells: aromatase readout", "format": "cell-based", "conditions": "footnote c: dual aromatase and sulfatase activity, nd: not detected, read-out: Aromatase activity IC50 (nM) ± S.E.M.", "experimental": "The JEG-3 cell line is intrinsically very rich in human estrone sulfatase and therefore is a useful biological system to evaluate new steroid sulfatase inhibitors in vitro. Assays were carried out with cells in logarithmic growth phase on 96-well microplates. 24 h before studies, cells were seeded in decomplemented fetal calf serum (dFCS) supplemented medium. The medium was removed 24 h later and cells were rinsed with PBS to eliminate any trace of dFCS. Then, ^3H-E1S was added in dFCS free medium, followed by test compounds at concentrations ranging from 10^−12 M to 10^−5 M. After 4 h of treatment, the medium was transferred into 96-deep-well microplates and centrifuged at 200×g for 10 min to pellet cells before toluene extraction. A fraction of the medium was used for toluene extraction in order to separate the conjugated substrate from non-conjugated products. The radioactivity in the toluene phase was measured by liquid scintillation counting. In parallel, after cell solubilization in a ethylenediamine tetraacetate solution, DNA content was measured by a standard fluorimetric method using the Hoechst 33258 fluorochrome. Finally, estrone sulfatase activity was expressed in pmoles of ^3H-E1+^3H-E2 formed/4 hours/mg DNA and estrone sulfatase inhibition as a percentage of control activity without inhibitor. […]"}, "[2]": {"target": "T1, human aromatase", "experiment": "Aromatase activity alone, tritiated water method in JEG-3 cells", "format": "cell-based", "conditions": "footnote a: aromatase activity alone, nd: not detected, read-out: Aromatase activity IC50 (nM) ± S.E.M.", "experimental": "The JEG-3 cell line, derived from a human placental choriocarcinoma, constitutively overexpresses human aromatase and represents a relevant model for assaying putative aromatase inhibitors in vitro. Aromatase activity was determined by the tritiated water method. In brief, cells were first seeded into 96-well microplates in decomplemented fetal calf serum (dFCS) supplemented medium. 24 hours later, cells were rinsed and fresh medium containing 1β-^3H-androstenedione as aromatase substrate was added together with test compounds at concentrations ranging from 10^−12 M to 10^−5 M. After 2 hours of incubation, a fraction of the medium was transferred to homologous new 96-well microplates and a dextran-coated charcoal solution was added to each well. Following standing on ice for 10 minutes, microplates were centrifuged (1500 g; 4° C.). All steroids, including the radioactive substrate and the newly biosynthesized estrogens, were adsorbed on charcoal; only ^3H-water specifically formed during aromatisation of 1β-^3H-androstenedione, remained in the supernatant. The radioactivity in the supernatant was measured by liquid scintillation counting. In parallel, cell solubilization was performed in ethylenediamine tetraacetate solution. […]"}}, "data": [{"molecule": "CC(C)(C#N)c1cc(Cn2cncn2)cc(C(C)(C)C#N)c1", "note": "[anastrozole, reference compound]", "values": [{"measurement": "IC50", "setting": "[1]", "result": "2.5 ± 0.6", "unit": "nM"}, {"measurement": "IC50", "setting": "[2]", "result": "6.93 ± 1.07", "unit": "nM"}]}]}
